Earlier results in patent US11504410B2, “Neuroprotection and neuroregeneration by pterostilbene and compositions thereof” (THERAPEUTIC SOLUTIONS INTERNATIONAL, INC., priority 2020, dated 2022).
Read-outs that look alike come from different tables or passages of the source. At least one compound was matched to its structure with a doubt left.

Tested on: microglial activation
Settings: untreated 10.5%, cited from earlier work

Compound: CN(C)c1ccc(O)c2c1C[C@H]1C[C@H]3[C@H](N(C)C)C(O)=C(C(N)=O)C(=O)[C@@]3(O)C(O)=C1C2=O [Minocycline, minocycline]
- survival of CA1 pyramidal neurons (treatment started 30 min after ischemia): 71%
- survival of CA1 pyramidal neurons (treatment started 12 h before ischemia): 77%
